From PubChem BioAssay AID662 (National Center for Advancing Translational Sciences (NCATS), 2007)
The list shows a part of the results. Shown are side measurements of this screen, not its main read-out; they come without a call. The list favours compounds with an active or inconclusive main result. Words in brackets tell the shape of the fitted curve; partial curves, single points and poor fits give uncertain potencies.

Test: Cell signaling CRE-BLA (Fsk stim)
Settings: CHO CRE-bla reporter (cAMP response element driving beta-lactamase), forskolin EC10, beta-lactamase ratio; measured here: 460 nm blue channel
Summary of the method: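 CHO CRE-bla cells, overnight plating in Opti-MEM with 0.5% dialyzed FBS; cpd titration + EC10 NKH 477, 3 h 37 °C; CCF4 2 h RT; ex 405/em 460 vs 530 ratio → %Activity, AC50.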

Row | Structure (SMILES) | AC50
1 | CC(C)Cn1c(CN2C(=O)c3ccccc3C2=O)nc2ccccc2c1=O | 6.31 µM [rising, partial curve]
2 | Cc1ccc(C2C3=C(CCCC3=O)Nc3[nH]c(=S)[nH]c(=O)c32)cc1 (centres undefined) | 31.6 µM [falling, single point]
3 | CCOc1ccc2c(c1)cc(CN(C(=O)CC)C1CCCCC1)c1nnnn12 | 10 µM [rising, partial curve]
4 | C=CCOn1c(=O)c(C)[n+]([O-])c2ccccc21 | 3.98 µM [rising, partial curve, poor fit]
5 | CCOC(=O)c1cccc(C(=O)OCC)n1 | 2 µM [rising, full curve]
6 | Cc1cc(C)nc(-n2nc(C)cc2NC(=O)CN2CCCC(C)C2)n1 (centres undefined) | 12.6 µM [rising, partial curve]
7 | CCOC(=O)c1ccc(NC(=O)Oc2ccccc2)cc1 | 0.0631 µM [rising, single point]
8 | CCOC(=O)c1oc2ccccc2c1NC(=O)c1cccc(OC)c1OC | 1.58 µM [rising, full curve]
9 | O=C(CSc1nc2ccncc2[nH]1)Nc1ccccc1C(F)(F)F | 1.26 µM [falling, partial curve]
10 | Cc1ccc(C(=O)n2cnnc2N)cc1C | 3.98 µM [falling, full curve]
11 | O=C(CSc1ccc2c(c1)OCCO2)Nc1ccc(Cl)cn1 | 12.6 µM [falling, partial curve]
12 | c1ccc2c(c1)OCC(c1csc3ncnc(N4CCOCC4)c13)O2 (centres undefined) | 0.398 µM [rising, full curve]
13 | COCCCNc1nc2c(c(=O)[nH]c(=O)n2C)n1CCCc1ccccc1 | 10 µM [rising, partial curve]
14 | O=C(Nc1nnc(C23CC4CC(CC(C4)C2)C3)s1)c1ccco1 | 0.501 µM [rising, single point]
15 | COc1ccc(C2CC(c3c(O)cc(C)oc3=O)=NCCS2)c(OC)c1 (centres undefined) | 3.16 µM [rising, partial curve]
16 | COc1ccc(S(=O)(=O)N(C)c2ccc(OCC(=O)Nc3cc(C)on3)cc2)cc1 | 25.1 µM [rising, single point]
17 | Nc1ccc(-n2ccnc2)cc1 | 0.0631 µM [falling, full curve, poor fit]
18 | CCN(CC)S(=O)(=O)c1ccc2c(c1)c(=O)c(C(=O)NCCCN(C)c1ccccc1)cn2C | 10 µM [rising, single point]
19 | COc1ccccc1-c1nc(NCCN2CCOCC2)c2ccccc2n1 | 10 µM [rising, partial curve]
20 | CN1CCN(c2nc3c(c(=O)[nH]c(=O)n3C)n2Cc2cccc3ccccc23)CC1 | 12.6 µM [rising, partial curve]
21 | COc1ccc(S(=O)(=O)N2CCN(Cc3cccc(Cl)c3)CC2)cc1 | 12.6 µM [falling, partial curve]
22 | CN1CCN(CCCNC(=O)C2CCN(c3nnc(-n4cccc4)s3)CC2)CC1 | 0.501 µM [falling, partial curve]

Row | Structure (SMILES) | AC50
23 | Cc1cc(=O)[nH]c(-n2nc(C)c(Oc3ccccc3O)c2C)n1 | 3.16 µM [rising, partial curve]
24 | CC(=O)c1cc(-c2ccccc2)[nH]c1N1CCCC1 | 12.6 µM [falling, partial curve]
25 | Brc1ccc(-c2cnc(-c3cccs3)o2)cc1 | 12.6 µM [rising, partial curve]
26 | Cc1nc2c(c(=O)n1CCC1=CCCCC1)c1nc3ccccc3nc1n2/N=C/c1ccco1 | 20 µM [rising, single point]
27 | O=C(c1ccc(Br)cc1)N1CCN(S(=O)(=O)c2ccccc2)CC1 | 12.6 µM [rising, single point]
28 | O=C(CCn1c(=S)[nH]c2ccccc2c1=O)NCCCN1CCCC1=O | 0.0398 µM [falling, full curve, poor fit]
29 | O=S(=O)(c1cccs1)N1CCN(CC(O)COc2cc(Cl)ccc2Cl)CC1 (centres undefined) | 25.1 µM [falling, single point]
30 | CCOC(=O)c1cnc(SC)nc1Nc1cccc(F)c1 | 7.94 µM [rising, partial curve]
31 | CCc1ccc(-c2cn(-c3nc(C)cc(C)n3)c(=N)o2)cc1 | 10 µM [falling, partial curve]
32 | CCCOc1ccc(C(=O)NCc2cccnc2)cc1 | 20 µM [falling, single point]
33 | Cc1ccc(S(=O)(=O)NCCOc2nc(N(C)C)nc(N3CCOCC3)n2)cc1 | 31.6 µM [falling, partial curve]
34 | COc1ccc2c(=O)cc(C(F)(F)C(F)(F)F)oc2c1 | 1 µM [falling, partial curve, poor fit]
35 | CC(NC(=O)c1ccccc1O)c1ccccc1 (centres undefined) | 0.316 µM [rising, partial curve]
36 | CCOC(=O)CSc1nnc(CNc2ccccc2Cl)n1-c1ccccc1 | 0.251 µM [falling, partial curve, poor fit]
37 | O=S1(=O)C=C(Sc2nnc(-c3ccccc3)o2)c2ccccc21 | 3.16 µM [falling, full curve]
38 | COc1cc(/C=C(\C#N)C(N)=O)cc(CSc2nc3ccccc3s2)c1O | 25.1 µM [rising, partial curve]
39 | CCOC(=O)Nc1sc(C(=O)N(CC)CC)c(C)c1C(=O)OCC | 1.26 µM [rising, partial curve]
40 | CCN(CCO)Cc1cn[nH]c1-c1ccc(C)c(C)c1 | 3.98 µM [falling, single point]
41 | COc1ccc(NC(=O)c2ccc(Cl)c(S(=O)(=O)N3CCc4ccccc4C3)c2)cn1 | 10 µM [falling, partial curve]
42 | O=C(CN1CCCC1)NCC1(c2ccccc2)CCOCC1 | 20 µM [rising, single point]
43 | Cc1nc(N2CCN(c3ccccc3)CC2)c2c3c(sc2n1)CCC3 | 2.51 µM [rising, full curve]
44 | Cc1cccc(-n2c(O)c(C=NCCCN3CCOCC3)c3ccccc3c2=O)c1 | 12.6 µM [rising, partial curve]

Filtered by structure, the entries above containing a CF3 group (2)
Row | Structure (SMILES) | AC50
9 | O=C(CSc1nc2ccncc2[nH]1)Nc1ccccc1C(F)(F)F | 1.26 µM [falling, partial curve]
34 | COc1ccc2c(=O)cc(C(F)(F)C(F)(F)F)oc2c1 | 1 µM [falling, partial curve, poor fit]

Some values from the list.
CN1CCN(c2nc3c(c(=O)[nH]c(=O)n3C)n2Cc2cccc3ccccc23)CC1 – AC50: 12.6 µM [rising, partial curve]
CC(NC(=O)c1ccccc1O)c1ccccc1 (centres undefined) – AC50: 0.316 µM [rising, partial curve]
